For one molecule, binding results are on record in publication PMC5240998.

Protein sequences, listed by entry. Tags and fused reporters are not part of them. Residues count along the entry.
UniProt P02769, residues 25-607: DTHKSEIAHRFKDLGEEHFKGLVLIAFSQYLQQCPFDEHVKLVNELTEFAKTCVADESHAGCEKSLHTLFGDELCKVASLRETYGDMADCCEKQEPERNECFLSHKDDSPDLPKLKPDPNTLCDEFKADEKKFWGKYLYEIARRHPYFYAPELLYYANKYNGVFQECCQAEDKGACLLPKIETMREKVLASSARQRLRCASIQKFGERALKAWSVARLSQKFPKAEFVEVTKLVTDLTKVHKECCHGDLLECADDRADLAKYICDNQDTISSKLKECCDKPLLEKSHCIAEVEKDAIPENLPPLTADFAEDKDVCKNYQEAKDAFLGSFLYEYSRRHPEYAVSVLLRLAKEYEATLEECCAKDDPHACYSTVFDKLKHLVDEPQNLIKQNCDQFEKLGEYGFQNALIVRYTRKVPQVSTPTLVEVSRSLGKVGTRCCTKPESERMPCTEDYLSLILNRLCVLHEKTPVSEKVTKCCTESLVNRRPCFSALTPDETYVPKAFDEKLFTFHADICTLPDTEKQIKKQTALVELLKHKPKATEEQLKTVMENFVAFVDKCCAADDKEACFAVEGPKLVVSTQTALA

No constants are given. Whether binding was seen depends on the method and setting.

The target in this assay is Bovine serum albumin (bovine) (UniProt P02769). Put plainly: ELISA; phage ELISA: VLPs, P-domain, S-domain (CT303) or BSA coated directly on the plate (VLPs 5 ug/mL in PBS); 5 × 10^10 cfu phage per well in 1% MPBS, 2 h RT; detected with anti-M13 HRP; signal as ratio to M13KE phage; both purified. (In general: ELISA stands for enzyme-linked immunosorbent assay.)

B1: NV-N-R5-1 phage-displayed 12-mer peptide (peptide)
peptide: LPSWYLAYQKII
In the case of B1, the binding entry is recorded as “no binding (tested: 5 × 10^10 cfu of phage per well)”.
